PubChem BioAssay AID1794845 (National Center for Advancing Translational Sciences (NCATS), 2023)
Out of some 6,900 compounds screened, fewer than 10 were called active. Calls follow the shape of the dose curve; as a rule, active = well fitted curve in the direction sought with a large enough effect; inconclusive = small, poorly fitted or top-dose-only effect, or another doubt; inactive = no such curve, though single readings can be large or run the other way. The list shows a part of the results.

By UniProt entry, the sequences of proteins in these tests, tags left out. Where a name states a change or a piece, a line headed by the entry shows the natural chain unless it says otherwise.
UniProt C7C422: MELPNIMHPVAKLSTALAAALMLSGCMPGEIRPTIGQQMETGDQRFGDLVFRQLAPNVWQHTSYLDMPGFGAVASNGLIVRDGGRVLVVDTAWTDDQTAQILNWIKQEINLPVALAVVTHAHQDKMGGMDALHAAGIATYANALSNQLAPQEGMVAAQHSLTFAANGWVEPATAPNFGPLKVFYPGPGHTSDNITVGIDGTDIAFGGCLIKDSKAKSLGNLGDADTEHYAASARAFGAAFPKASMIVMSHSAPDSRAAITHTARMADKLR

biological target: Metallo-beta-lactamase type 2 (Klebsiella pneumoniae) (UniProt C7C422); assay: qHTS to identify inhibitors of the New Delhi Metallo-beta-lactamase (NDM): primary screen against the NCATS Gemini Collection; details: NDM-1 enzyme, meropenem hydrolysis, absorbance 300 nm; at 38.4 µM (top of the series) unless noted; also: % of control where 0% means no effect
Source text: Assay Submitter (PI): James Inglese Ph.D., Patricia Dranchak Ph.D., Mahesh Aitha Ph.D. Assay Development and Screening Technology Laboratory (ADST) National Center for Advancing Translational Sciences (NCATS), Rockville, MD National Institute of Health (NIH), Bethesda, Maryland The metallo-beta-lactamases (MBL) are a main antibiotic resistance mechanism evolved by bacteria. There is an urgent clinical need for MBL inhibitors to mitigate this growing threat. To support a machine-based learning study, qHTS has been used to experimentally test inhibitors identified by prediction tools.
PROTOCOL TABLE (as described by Inglese et al., 2007) SEQUENCE No. (e.g., 1, 2, 3, etc.); […] (e.g., enzyme, Incubation, Reagent, etc.); VALUE; DESCRIPTION 1; NDM-1; 4 uL of 3 nM enzyme [2 nM final] in 50 mM HEPES (pH 7.0), 1 uM […], 0.01% Tween20; Use BioRaptr to dispense into Aurora black, clear bottom low base 1536-well plates 2; Compounds; 23 nL; Use Pin Tool (Wako) to transfer DMSO control and library compounds in DMSO 3; Incubate; >30 min 4; Reagent; 2 uL of 150 uM meropenem [50 uM final] 5; Incubate; 30 min. 6; Detector; Absorbance at 300 nm (bandwidth = 5 nm, 25 flashes/well) on Tecan Infinity NOTES (numbers refer to sequence above) 1; Column 1 of each plate received assay buffer without enzyme and columns 2-48 received enzyme for a final assay concentration of 2 nM. 2; Control plate contained DMSO in columns 1, 2, 3, and 4. 3; Compound interaction with enzyme. 4; Meropenem substrate was prepared in the same assay buffer as step 1 for a final assay concentration of 50 uM and added to all wells across the assay plates. 5; Substrate interaction with enzyme, plateau phase of kinetics. 6; Default reader settings were applied for absorbance read at 300 nm, bandwidth = 5 nm, 25 flashes/well. References: Inglese J, Shamu CE, Guy RK. 2007. Reporting data from high-throughput screening of small-molecule libraries. Nat Chem Biol. doi:10.1038/nchembio0807-438 Yasgar A, Shinn P, Jadhav A, Auld D, Michael S, Zheng W, Austin CP, Inglese J, Simeonov A. 2008. Compound Management for Quantitative High-Throughput Screening. J Lab Autom 13:79 - 89. doi:10.1016/j.jala.2007.12.004

Activity % (negative = inhibition), inactive:
COc1cc(CN2CCN(Cc3ccc(-n4cccn4)cc3C)CC2CCO)cc(OC)c1 (stereo not drawn) 0.369%
O=C(c1ccccc1OCC1CCCN(Cc2nccs2)C1)N1CCCC1 (stereo not drawn) -1.5%
CCc1nc2c(c(-c3ccc(O)cc3)n1)CCN(Cc1ccc(F)cc1)CC2 2.26%
COCCN1C(=O)CCC2(C(=O)N3CCN(c4ccccn4)CC3)CCCC=C12 (stereo not drawn) 0.137%
O=C(O)C[C@@H]1CCN(C(=O)c2ccc(C(F)(F)F)cc2)C[C@@H]1CCN1CCN(c2ccccn2)CC1 -0.741%
CCOc1ccc(-c2cccc3c2CCNC3)cc1C(N)=O 1.79%
CC[S+](=O)([O-])N1C[C@@H](CO)[C@@H]2Oc3c(F)cccc3[C@@H]21 7.08%
CC1CCN(C(=O)C[C@@H]2c3nc(NC(=O)CC(C)(C)C)sc3C[C@@H]3[C@](C)(CO)[C@H](O)CC[C@]32C)CC1 5.2%
COc1ccc(-c2nc3ccncc3[nH]2)cc1 48% [at 77.1 µM]
Cc1nc(C2(C)CCN(C(=O)CCCC(=O)n3nc(C)c4ccccc43)CC2)no1 17.2%
COCCNC(=O)c1cc(-c2ccccc2OC)c2cccn2n1 -0.624% [at 57.5 µM]
CN(Cc1ccccc1C(F)(F)F)S(=O)(=O)c1cccc(C(F)(F)F)c1 2.58%
O=C([C@@H]1C[C@H](F)CN1C(=O)NCc1ccc(OC(F)(F)F)cc1)N1CCCCC1 -6.66%
CCN(CC)C(=O)C[C@@H]1c2nc(NC(=O)N3CCOCC3)sc2C[C@@H]2[C@](C)(CO)[C@H](O)CC[C@]21C 7.1%
COCC(=O)N1CCN(C(=O)CSCC(=O)O)C[C@H]1C(=O)N[C@H]1CCCNC1=O 14% [at 57.5 µM]
COC1CCOC2(CCN(S(=O)(=O)c3c(C)noc3C)CC2)C1 (stereo not drawn) -6.37%
Cc1cccc(-c2nc(Cn3c(-c4ccc(F)cc4)nc(C)c(CCO)c3=O)c(C)o2)c1 -3.03%
Cn1nccc1C(=O)N1CCC(Cc2nc(C3CC3)n[nH]2)C1 (stereo not drawn) 15.5%
Cc1ccc(C(=O)N2CC(Oc3ccc(F)c(C)c3)C2)cc1 -2.66% [at 57.5 µM]
O=C(NC1C[C@H]2CC[C@@H](C1)N2S(=O)(=O)c1cccs1)c1ccncc1 (stereo partly drawn) 0.389%
CC(C)NC(=O)CCc1cc2n(n1)CCN(C(=O)[C@H]1CCCO1)C2 3.26%
C=CCNC(=O)c1cn2c(n1)CN(C(C)=O)CC2 8.68% [at 77.1 µM]
Cc1cc(N2CCC3(CCCN(C)C3=O)C2)c2ccccc2n1 (stereo not drawn) 4.05%
O=C1CN(Cc2ccc(-c3ccccc3)cc2)CCN1c1ccc(Cl)nn1 6.11%
O=C(NCc1nnc2n1CCCC2)[C@H]1CNC[C@H](C(=O)N2CCOCC2)C1 -5.13%
Cc1cccc(NC(=O)N2CCn3nnc(CCC(=O)NC4CC4)c3C2)c1 -3.18%
COc1ccccc1-c1nc2nccc(-c3cccnc3)n2n1 31.2%
CN(C)CC1(O)CCC2(CCN(C(=O)c3nccc4ccccc34)CC2)CC1 -4.02%
NCc1ccc(Oc2ncnc3ccccc23)cc1 55.8% [at 57.5 µM]
CC(=O)NCC(=O)NC1CC(C)(C)Cc2nc(N(C)Cc3ccccc3)ncc21 (stereo not drawn) -0.335%
O=C1COC[C@H]([C@H](O)c2ccc(NC(=O)C3CCCC3)cc2)N1 -0.711% [at 57.5 µM]
CC1(c2noc(C3CC3)n2)CCN(C(=O)CCc2nc3ccc(Cl)cc3[nH]2)CC1 3.59%
CCn1nc(CC(C)C)cc1C(=O)N1CCN(S(=O)(=O)CC)CC1 8.03%
CCOc1ccc(C(=O)N2CCCC3(C2)NC(=O)N(Cc2cc(C)ccc2C)C3=O)cc1 (stereo not drawn) 0.0119%
CC(C)CNC(=O)N1CCC(Nc2cccnc2)C1 (stereo not drawn) 13.3%
COc1ccccc1C(=O)N1CC(Oc2ccc(-c3noc(-c4ccncc4)n3)cc2)C1 -0.932%
Cc1ccc(C(C(=O)NCc2ccc(O)cc2)N(C)C)cc1 (stereo not drawn) 0.0099%
COc1ccc2[nH]c(C(=O)N3CCCCCNC(=O)[C@@H]4CCC[C@@H]43)cc2c1 35.9%
Cc1c(CNC(=O)c2ccccc2C2CCNC2)oc2ccccc12 (stereo not drawn) 5.89%
CNC(=O)Cn1nc(C2CCN(C(=O)c3ccccc3F)CC2)c2c1CCOC2 24.9%
Cc1ccc(CN2CCOCCNC(=O)[C@H]3CCCC[C@H]32)o1 0.112%
CN(CC(=O)N[C@H]1CCOC[C@H]1C1CCOCC1)Cc1ccncc1 7.29%
Fc1ccc(Nc2nc(-c3ccccc3F)no2)cc1 2.76%
COc1ccc(-c2cc(N3CCCN(C(=O)CCCc4ccccc4)CC3)n[nH]2)cc1 3.03%
CC(C)CN1C(=O)COC[C@@H]1[C@H](O)c1ccc(NC(=O)c2ccc3c(c2)OCO3)cc1 53.8% [at 57.5 µM]
O=C1CC(c2ccccc2)N(C(=O)CNC(=O)c2ccncc2)CCCCCN1 (stereo not drawn) -3.75%
COc1cccc(-c2ccc(NC(=O)C3CCCN3C(=O)CNC(C)=O)cc2)c1 (stereo not drawn) 0.221%
CN(Cc1cccc(C(F)(F)F)c1)C(=O)CC1CCCC1 -5.9% [at 57.5 µM]
O[C@]12CCNC[C@H]1CN(Cc1cccc(N3CCOCC3)c1)CC2 29.4%
O=C(NC[C@H]1O[C@@H](CC(=O)N2CCc3ccccc32)[C@H](O)[C@@H]1O)C1CC1 -1.9% [at 57.5 µM]
O[C@@H]1CN(CC2CC2)CC[C@H]1N1CCN(c2ccccc2F)CC1 3.65%
CC(C)Cc1nc(NC(=O)C[C@H]2NC(=O)c3ccccc3NC2=O)n[nH]1 -0.13%
O=C(N[C@H]1C[C@@H]2OCC[C@H]12)c1cccc(-n2cnnc2)n1 -0.0441%
Cc1ccc(CNC2CN(C(=O)OC(C)(C)C)C2)nc1 -1.02% [at 57.5 µM]
Cn1ccnc1C(=O)N1CCCCCNC(=O)[C@H]2C[C@H](C(=O)N3CCc4ccccc4C3)C[C@H]21 2.11%
O=C(c1c2c(nc3ccccc13)CCCC2)N1CCCC(c2nc(C3CCOCC3)no2)C1 (stereo not drawn) 8.67%
O=C(NCCCc1ccccc1)C1CCN(c2cc(C(F)(F)F)ncn2)CC1 18.3%
COc1ccc(CNC(=O)O[C@H]2COCCN(c3nc4ccccc4o3)C2)cc1 1.02% [at 57.5 µM]
O=C(c1ccc(F)cc1)N1CCN(c2nc3ncccc3o2)CC1 9.92% [at 57.5 µM]
OCC1(O)CCCN(Cc2cnc(NCc3ccccc3)nc2)C1 (stereo not drawn) -0.644%
COCc1nc(C2CC(N)C2)cc(N(C)Cc2noc3c2CCCC3)n1 (stereo not drawn) 15.4%
O=C(Nc1ccc(F)cc1)c1ccnc2[nH]ccc12 21% [at 77.1 µM]
O=S(=O)(c1ccccc1)N1CCC(CCOc2ccccc2)C1 (stereo not drawn) -1.27%
O=C(C1CCCN([S+](=O)([O-])c2cccs2)C1)N1CCC(N2CCCC2=O)CC1 (stereo not drawn) 6.91%
O=C(c1ccc(OC2CCN(C(=O)C3CCCC3)CC2)nc1)N1CCOCC1 -0.685%
CN1Cc2nc(OCc3ccc(F)cc3)ccc2OCC1=O 2.85% [at 57.5 µM]
O=C1CO[C@H]2CCN(CCCc3ccccc3)CC[C@@H]2N1c1ccccc1 3% [at 57.5 µM]
CC(=O)N1CCN(c2nc3c(s2)CC(C(=O)NCc2ccc(C(C)C)cc2)CC3)CC1 (stereo not drawn) -0.544%
COc1nc2c(cc1CNC(=O)c1cccnc1C)C(=O)N(C1CCCC1)C2 4.73%
CC(C)CCN1C[C@@H]2C[C@H]1C(=O)N(Cc1cccnc1)c1ccccc1O2 5.19% [at 57.5 µM]
C[S+](=O)([O-])N1Cc2ccccc2OC2(CCN(C(=O)c3cccc4[nH]ccc34)CC2)C1 10.3%
COCCN1C(=O)c2ccccc2C(C(=O)Nc2nnc(C)s2)C12CCCCC2 (stereo not drawn) -0.924%
COc1cccc(Nc2ncc3c(n2)C(C)(C(=O)N2CCN(c4ccccn4)CC2)CC3)c1 (stereo not drawn) 4.25%
Cc1ccc(C(=O)N2CCC3(CC2)CC(N2CCN(CC(C)C)CC2)CCO3)cn1 (stereo not drawn) 0.181%
Cn1ncc(N2CCCC(C(=O)NCCCc3ccccc3)C2)cc1=O (stereo not drawn) 2.42%
O=C(C[C@@H]1O[C@H](CNC(=O)C2CC2)[C@@H](O)[C@H]1O)Nc1ccccc1 -0.242% [at 57.5 µM]
CCn1cc(S(=O)(=O)N2CC(N(C3CCOCC3)S(C)(=O)=O)C2)cn1 -0.782%
Fc1ccc(C2Cn3cnc(-c4nc(-c5ccsc5)no4)c3CO2)cc1 (stereo not drawn) -1.04%
c1ccc(C(c2ccccc2)N2CCN(Cc3nc(-c4ccccn4)no3)CC2)cc1 -8.95%
COc1ccc(NC(=O)N[C@H]2C[C@@H](C(=O)N[C@@H](Cc3cccs3)C(N)=O)N(C(=O)CSC)C2)cc1 2.07%
O=C(O)c1cc(-c2cccc(CO)c2)cc(S(=O)(=O)NC2CCCC2)c1 10.6%
COCC1(CNC(=O)c2cnccn2)C[C@@H](O)[C@@H](O)C1 (stereo partly drawn) 20.1% [at 77.1 µM]
Cc1noc2c(NCCN3CCOCC3)cc(-c3ccsc3)nc12 84% [at 57.5 µM]

Arranged by length of the SMILES (largest number first): some entries from above.
Activity % (negative = inhibition), inactive:
Cc1nc(C2(C)CCN(C(=O)CCCC(=O)n3nc(C)c4ccccc43)CC2)no1 17.2%
CC(C)NC(=O)CCc1cc2n(n1)CCN(C(=O)[C@H]1CCCO1)C2 3.26%
Cc1cc(N2CCC3(CCCN(C)C3=O)C2)c2ccccc2n1 (stereo not drawn) 4.05%

Random excerpt: 2 entries already listed
Activity % (negative = inhibition), inactive:
COCCN1C(=O)CCC2(C(=O)N3CCN(c4ccccn4)CC3)CCCC=C12 (stereo not drawn) 0.137%
CN(Cc1cccc(C(F)(F)F)c1)C(=O)CC1CCCC1 -5.9% [at 57.5 µM]
